From US11130959B2, “Methods and compositions for combinations of mutations associated with herbicide resistance/tolerance in rice” (priority 2016, dated 2021)
Some results were stated once for a whole list of compounds, not compound by compound.

System: rice line RTA1 (ML0831265-01493, G2096S)
Assay: Field trait tolerance trial, FOP herbicides applied sequentially at 2-leaf and pre-flood
Type: in vivo, Oryza sativa
Settings: RTA1, 1× application rate, sequential 2-leaf and pre-flood
Text: FIG. 20A-FIG. 20D showing % Injury response data and plot pictures. Material tested included ACCase-inhibitor resistant combined ACCase lines (RTA1+RTA2), the RTA1 and the RTA2 singles and the stack RTA1+HPPDi+HPPDni. Two applications (at the 2 leaf and pre-flood stage) used the same rate for both applications. […] (all images taken 4 weeks post preflood app), FIG. 20D Plat order (left to right) RTA1, RTA2, RTA1+RTA2, RTA1+HPPD i+HPPDni, P1003, R0146.
FIG. 21A-FIG. 21E, show plot pictures and % Injury response for ACCase lines RTA1, RTA2, and the stacks RTA1+RTA2 as well as the stack […], when challenged by increasing doses of the main FOP herbicides. […] FIG. 21A untreated control, FIG. 21B 4× Quizalofop, FIG. 21C 4× Fluazifop, FIG. 21D 4× Propaquizafop. 4 weeks post preflood application. Plot order (left to right) G2096S, RTA2, G2096S+RTA2, G2096S+HPPD, P1003, R0146. […]
Evaluation of the novel herbicide resistance genes, subject of this application, was conducted with a range of suitable herbicide doses that cover application rates typically used for rice farming operations while also taking into consideration possible deviations from the manufacturer-recommended doses. Considering 1×, the recommended manufacturers or best practice recommended dose, the most frequently evaluated additional doses are 2× and 4× with some experiments including other values.

| SMILES | injury rates |
| --- | --- |
| CC(C)=NOCCOC(=O)[C@@H](C)Oc1ccc(Oc2cnc3cc(Cl)ccc3n2)cc1 [Propaquizafop] | below 10% |
| CC(Oc1ccc(Oc2cnc3cc(Cl)ccc3n2)cc1)C(=O)O (centres unmarked) [Quizalofop] | below 10% |
